Here are results for 30 molecules from PubChem BioAssay AID2685 (National Center for Advancing Translational Sciences (NCATS), 2010).

This assay in a line: qHTS Assay for Lipid Storage Modulators in Drosophila S3 Cells.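 On cell number change: cells counted by Cell Tracker Red CMTPX staining in the red channel.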 The following applies: BODIPY lipid droplet fluorescence, 18-24 h; for cell number change: measured here: cell count max response, cells fed with added oleic acid. From the text: NIH Molecular Libraries Probe Production Centers Network [MLPCN] NIH Chemical Genomics Center [NCGC] MLPCN Grant: 1 R03 MH085686-01 Assay Submitter (PI): Beller, Mathias; Max-Planck-Institut fur Biophysikalische Chemie NCGC Assay Overview: Storing lipids as a reservoir for energy or the anabolism of elementary metabolites is a common feature of probably all cells and is conserved from bacteria to humans. The universal cellular lipid storage organelle is the so-called lipid storage droplet (LD). Although ubiquitous, LDs share a simple structure composed of a hydrophobic core that harbors the storage lipids, which is shielded by a droplet-specific phospholipid monolayer to which proteins are attached. The current model of LD biogenesis involves an incorporation of the lipid core into the membrane leaflets of the endoplasmic reticulum (ER) followed by a subsequent budding-like maturation of a LD, which ultimately pinches off. Once released, LD volume can increase by localized lipogenesis or fusion of existing droplet. Storage lipids are re-mobilized enzymatically by lipase activity. Lipase regulation in the adipocyte is heavily studied and involves multiple components including catecholamine signaling, the LD-associated proteins Perilipin and comparative gene identification (CGI-58) and at least two lipases named hormone sensitive lipase (HSL) and adipocyte triglyceride lipase (ATGL). LD regulation outside of the adipocyte is poorly understood and only few components are known. However, there is an urgent need to learn more about ectopic fat depots as mislocalized storage of lipids, for example in the liver or muscle, is an eminent health problem associated with insulin resistance or the metabolic syndrome. We developed a laser-scanning cytometer assay to enable 1,536-well screening and combined the results of the small molecules screen with an RNAi database based on lipid storage.
Triacsin C (Sigma-Aldrich T-4540), an inhibitor of long-chain fatty acyl CoA synthetase that blocks synthesis of triglycerides, was used as a positive control for lipid under-storage. A total of 23 nL of compound solution of different concentrations were transferred to the assay plates using a Kalypsys pin tool equipped with a 1,536-pin array containing 10-nL slotted pins (FP1S10, 0.457-mm diameter, 50.8 mm long; V&P Scientific). One microliter of oleic acid (400 uM) was added, and the plate was lidded with stainless steel rubber gasket lined lids containing pinholes. […] Fluorescence was detected by excitation of the fluorophores with a 488-nm laser on an Acumen Explorer (TTP Lab Tech). The total intensity in channel 2 (500-530 nm) reflected lipid droplet accumulation. Cells were detected using channel 3 (575-640 nm) with 5-um width and 100-um depth filters. The ratio of the number of objects in PMT channel 2 over the number of objects in PMT channel 3 was also calculated. Percent activity was computed relative to an internal control (100% inhibited lipid droplet deposition due to the presence of 20 uM Triacsin C), which was added to 32 wells/plate.

Setting [1] is: measured here: lipid fluorescence (Fed channel) AC50, cells fed with added oleic acid.
The mark [2] stands for this setting: measured here: cell number channel AC50, cells fed with added oleic acid.

The structures appear in SMILES notation. Some of the results follow. These are further read-outs of the screen, such as a control signal, another cell line or another target. No call is given for them. Compounds called inactive in the main read-out are mostly missing here. Potencies come from curve fits of mixed quality, noted in brackets.

With `COc1ccc(Br)cc1/C=C/c1ccc2cccc(O)c2n1`, the cell number change was -10.6%. For the same molecule, the half-maximal activity concentration (AC50) under setting [1] was 3.66 µM [falling, full curve].
For the molecule `COC1(C)CC2C(CC1OC(=O)c1cc([N+](=O)[O-])cc([N+](=O)[O-])c1)C2(C)C` (configuration not stated), the cell number change is -34.7%. Besides, under setting [2], the AC50 was 1.46 µM [falling, partial curve, poor fit]. The AC50 under setting [1] is 20.6 µM [falling, single point].
Turning to `CN(C)c1ccc(C(C(=O)NCC2CCCO2)N(C(=O)c2snc(C(N)=O)c2N)c2ccc3c(c2)OCO3)cc1` (configuration not stated), the cell number change amounted to 19.6%. Moreover, the AC50 under setting [1] was 0.411 µM [rising, single point].
As to `CNC(=O)CSc1nnc(CCc2ccccc2)n1-c1ccccc1`, the cell number change is -14.9%. Under setting [1], the half-maximal activity concentration (AC50) is 18.4 µM [rising, single point].
As for `CC1CCN(S(=O)(=O)N2CCC(C(=O)NCCN3CCOCC3)CC2)CC1`, the cell number change came to 14%. Moreover, the AC50 under setting [1] was 3.26 µM [falling, single point].
Turning to `O=C(CCc1n[nH]c(=O)[nH]c1=O)N1CCOCC1`, the cell number change is -82.7%. For the same molecule, under setting [2], the AC50 is 5.8 µM [falling, full curve]. Further, the AC50 under setting [1] was 29.1 µM [falling, partial curve, poor fit].
Consider `Cc1ccc(S(=O)(=O)c2nc(S(C)(=O)=O)sc2NCC2CCCO2)cc1` (configuration not stated), for which the cell number change worked out at 7.82%.
With `CCn1c(=O)n(CC)c2cc(N3CCCC3)c(NC(=O)c3cc(Cl)ccc3OC)cc21`, the AC50 under setting [1] is 4.11 µM [falling, full curve].
As to `CCCCOC(=O)Cc1c(O)c2ccccc2[nH]c1=O`, the cell number change is -9.65%. The AC50 under setting [1] was 29.1 µM [falling, single point].
Turning to `CC(Cc1cccs1)NC(=O)Nc1cccc(Cl)c1` (configuration not stated), the cell number change was -12.9%.
As for `COc1ccc(NC(=O)N2CCC(c3nc4ccccc4[nH]3)CC2)cc1`, the cell number change was determined as 5.56%. The AC50 under setting [2] was 0.731 µM [falling, single point]. Besides, the AC50 under setting [1] was 0.651 µM [falling, single point].
For the molecule `CC(=O)Oc1ccccc1/C=C/c1nc2ccccc2c(=O)o1`, the cell number change stood at 24.7%. Moreover, the AC50 under setting [1] is 5.17 µM [rising, partial curve, poor fit].
Take `O=C(CC1Oc2ccccc2NC1=O)NCCCN1CCOCC1` (configuration not stated): the cell number change was -19.9%. For the same molecule, the AC50 under setting [1] is 0.00461 µM [falling, full curve, poor fit].
`CCCC(C)(C)NC(=O)CCCCC(=O)NC(C)(C)CCC`: the cell number change is -14.8%. Moreover, under setting [1], the AC50 is 25.9 µM [falling, single point].
Turning to `COc1cccc(C(C(=O)NC(C)(C)C)N(C(=O)CCC(=O)Nc2cc(C)on2)c2ccc3c(c2)OCCO3)c1OC` (configuration not stated), the cell number change was determined as 15.8%.
Take `N#Cc1cccc(NS(=O)(=O)c2ccccc2Cl)c1`: the cell number change was 5.55%. Besides, the AC50 under setting [2] was 6.51 µM [rising, single point]. Under setting [1], the AC50 was 16.4 µM [rising, single point].
For the molecule `CCOC(=O)c1c(S(=O)(=O)N2CCN(c3ccc(C(C)=O)cc3)CC2)c(C)n(C)c1C`, under setting [1], the AC50 is 6.51 µM [falling, single point].
For the molecule `FC(F)(F)c1ccccc1NC(=S)N1CCCCCC1`, the cell number change is -3.18%. For the same molecule, the AC50 under setting [1] is 5.8 µM [rising, single point].
As for `Cc1ccc(-n2c(-c3ccccc3)cc(/C=N/NC(=O)CC#N)c2-c2ccccc2)cc1`, the cell number change was determined as 15.3%. Moreover, the AC50 under setting [2] is 0.00461 µM [rising, full curve, poor fit].
For the molecule `COc1cccc(C2c3[nH]c4ccccc4c3C[C@H]3C(=O)N(CCCOC(C)C)CC(=O)N23)c1` (some centres not stated), the cell number change is 38.7%. For the same molecule, the AC50 under setting [2] is 2.59 µM [rising, single point].
For the molecule `COC(=O)c1ccc(C2C(Oc3ccc(OC)cc3)C(=O)N2CCc2ccc(OC)c(OC)c2)cc1` (configuration not stated), the cell number change is 3.49%. The AC50 under setting [1] is 32.6 µM [falling, single point].
As for `Cc1nn(C)c(C)c1S(=O)(=O)N1CCC(CO)(Cc2ccc(Cl)cc2)CC1`, the cell number change was -18.1%. Besides, under setting [1], the AC50 is 29.1 µM [falling, single point].
As for `O=C(CN1CCOCC1)N/N=C/c1ccc(-c2ccc(C(=O)O)cc2)o1`, the cell number change is -13.7%.
`CC1CCCC(C)N1C(=O)Cn1nnc(-c2ccc([N+](=O)[O-])cc2)n1` (configuration not stated): the cell number change is -14.6%. For the same molecule, the half-maximal activity concentration (AC50) under setting [1] was 4.61 µM [falling, single point].
For the molecule `O=C(Nc1c(C(=O)NCc2ccco2)cnn1-c1ccccc1)c1cccc(F)c1`, the cell number change was -9.73%.
As to `COc1ccccc1NC(=O)CN1C(=O)C(C)Oc2ccccc21` (configuration not stated), the cell number change is -3.23%. The AC50 under setting [1] was 0.116 µM [rising, full curve].
`COC(=O)c1ccc(COC(=O)c2cccn2C)o1`: the cell number change came out at 20.7%. The AC50 under setting [2] was 0.0291 µM [rising, full curve, poor fit]. Also, the AC50 under setting [1] was 4.11 µM [rising, full curve].
In the case of `CSc1nsc(SCC(=O)NCc2ccc(C)cc2)n1`, the cell number change was -10.1%.
In the case of `Clc1ccc(SCCOCCN2CCc3ccccc3C2)cc1`, the cell number change was -52%. Further, the AC50 under setting [2] was 29.1 µM [falling, single point]. Under setting [1], the AC50 was 0.92 µM [falling, full curve, poor fit].
On to `CC(C)(C)C(=O)CSc1nnc(-c2cccs2)n1CC1CCCO1` (configuration not stated), for which the AC50 under setting [2] was 0.146 µM [falling, full curve, poor fit].

By AC50 is commonly meant the concentration giving half of the maximal activity seen. A higher AC50 goes with weaker potency.
